Data published in patent publication US20260231951A1, “COATED SEEDS AND METHODS TO IMPROVE CROPS” (MONTANA STATE UNIVERSITY, priority 2023, published 2026).
At least one structure is not confirmed: it was looked up by name or label, or the drawing left a doubt.

Test system: Avondale lentil
Experiment: Greenhouse test of DBDTP seed treatment concentration for lentil growth
Assay type: in vivo
Conditions: 14 days after planting
Protocol: Testing was carried out in the greenhouse. Seed was treated according to Table 4. Prior to planting, pots were watered and seed was sown into moist potting soil. Pots were not watered for 5 days after planting to avoid flushing DBDTP out of the pot. […] Seed was treated with a 1.5% w/v solution of diluted SPRET surfactant with addition of DBDTP. Early plant growth was boosted between treatment concentrations 0.188 M-1.7 M. A likely beneficial treatment range lies between 0.03-0.26 mg/seed.

Compound: CCCCOP(=S)(S)OCCCC [DBDTP, dibutyl dithiophosphate]
- treatment concentrations between which early plant growth was boosted: 0.188 M-1.7
